Reference: PubChem BioAssay AID540256 (National Center for Advancing Translational Sciences (NCATS), 2011)
The campaign covered roughly 300,000 compounds. About 3,700 (1.2%) were called active. This list was built around the results that the source calls inconclusive (neither active nor inactive); the mix of calls is not that of the screen. The call rests on the fitted dose curve; tested in HEK293 cells. A potency beside an inconclusive call is a rough fit, not a confirmed value.
Potency means the concentration at half of the fitted maximal effect.

Assay: qHTS for Inhibitors of binding or entry into cells for Lassa Virus; further: nearly all actives have a fitted effect of over 50% in size
Conditions: Lassa virus pseudotype entry inhibition, cell reporter; series mostly up to 37.9 µM
With CCC(CC)C(=O)N(CCc1ccc(OC)cc1)Cc1nc2ccccc2c(=O)[nH]1 the Potency was inconclusive: 16.4 µM [inhibitor, partial curve, poor fit].
With O=C(Nc1nc2ccccc2[nH]1)C12CC3CC(CC(C3)C1)C2 the Potency was inconclusive: 35.5 µM [inhibitor, single point].
For Cc1cccc(C)c1OCc1nc2c3cnn(-c4ccccc4F)c3ncn2n1, the Potency was “inactive”.
With CC(C)(C)c1ccc(OCc2nc3ccccc3n2CCOc2ccccc2)cc1 the Potency was “inactive”.
For CC(=O)Nc1ccc(OCC(O)Cn2cncn2)cc1 (centres undefined), the Potency was inconclusive: 7.94 µM [activator, partial curve].
With O=C(NC1CCCCC1)c1ccc(S(=O)(=O)c2ccccc2Cl)c([N+](=O)[O-])c1 the Potency was inconclusive: 3.66 µM [inhibitor, partial curve, poor fit].
With CCOc1ccccc1NC(=O)C1CCN(S(=O)(=O)c2ccc3[nH]c(=O)oc3c2)CC1 the Potency was “inactive”.
In the case of CCC1CCCCN1S(=O)(=O)c1ccc(NC(=O)c2nc(S(C)(=O)=O)ncc2Cl)cc1 (centres undefined), the Potency is reported as inconclusive: 35.5 µM [inhibitor, single point].
In the case of CC1CCc2c(cc(-c3ccccc3)n2-c2ccc(C(=O)NC(C)C)cc2)C1 (centres undefined), the Potency is reported as inconclusive: 35.5 µM [inhibitor, single point].
For CCN(CC)CCCNC(=O)c1cc(-c2ccccc2)c(N2CCCCC2)s1, the Potency was active: 15.8 µM.
For Nc1nc(Cl)cc(Sc2ccc3ccccc3c2)n1, the Potency was active: 10 µM.
For NC(=S)NN=C(Cc1ccccc1)Cc1ccccc1, the Potency was inconclusive: 12.6 µM [inhibitor, single point].
With O=C(/C=C1\NC2(CCCC2)Cc2ccccc21)C(=O)N/N=C/c1ccc(O)c(O)c1 the Potency was inconclusive: 5.8 µM [inhibitor, partial curve, poor fit].
For CCOC(=O)c1ccccc1NC(=O)CN(c1cccc(C)c1C)S(=O)(=O)c1ccccc1, the Potency was inconclusive: 35.5 µM [inhibitor, single point].
With CCOC(=O)CN1C(=O)[C@@]2(CC(C)=C[C@@H](COCc3ccccc3)O2)c2ccccc21 the Potency was inconclusive: 0.0008 µM [inhibitor].
In the case of COc1ccccc1CCNC(=O)Cc1ccc(NC(=O)N2CCSc3ncccc32)cc1, the Potency is reported as “inactive”.
With COc1ccccc1NS(=O)(=O)c1ccc2oc(=O)ccc2c1 the Potency was inconclusive: 14.1 µM [activator, single point].
For CCCNS(=O)(=O)c1cc(-c2nn3c(C)nnc3c3ccccc23)ccc1C, the Potency was inconclusive: 35.5 µM [inhibitor, single point].
With COc1ccc(CNC(=O)c2cc3c(=O)n(Cc4cccnc4)ccc3nc2C)cc1 the Potency was “inactive”.
